From the supplement of paper PMC8551327
The other results are listed elsewhere or left out. Rule as the data show it: active = 1.25 or more and inactive = the rest. Single values are uncertain, as repeats are few or missing.

tested on: Kcc2-LUC knock-in mouse primary cortical neurons (Kcc2 promoter reporter); assay: Kcc2 promoter-driven luciferase activity relative to vehicle control (fold of vehicle (ratio)); higher = stronger Kcc2 promoter activation (Kcc2 expression enhancer); settings: 100 nM; 48 h

Row | Structure (SMILES) | Kcc2 promoter-driven luciferase activity
1 | CC1=CC(C)(C)N=C2SC(c3ccc(N)cc3)=NN12 | inactive: 1.13
2 | COc1ccc(C2=Nc3ccccc3SC(C)C2)cc1 (stereo unspecified) [4-(4-methoxyphenyl)-2-methyl-2,3-dihydro-1,5-benzothiazepine] | inactive: 0.54
3 | Nc1ccc(N)c2c1C(=O)c1ccccc1C2=O [Disperse Violet 1] | inactive: 0.95
4 | CN1c2c(nc(N)[nH]c2=O)NCC1CCNc1ccc(C(=O)NC(CCC(=O)O)C(=O)O)cc1 (stereo unspecified) [Methyltetrahydrohomofolate, MeTHHF disodium] | inactive: 1.01
5 | COc1ccc2cc1Oc1ccc(cc1)C[C@@H]1c3cc(c(OC)cc3CCN1C)Oc1c(OC)c(OC)cc3c1[C@H](C2)N(C)CC3 [Isotetrandrine] | inactive: 0.99
6 | CCCCCc1cc(O)cc2c1Oc1cc(O)cc(C(=O)CCCC)c1C(=O)O2 [Norlobaric Acid] | inactive: 1.09
7 | N#CC1CC(c2ccccc2)Nc2cc(Cl)ccc2N1 (stereo unspecified) | inactive: 0.98
8 | CC[C@H]1NC(=O)[C@@H](NC(=O)c2ncccc2O)[C@@H](C)OC(=O)[C@H](c2ccccc2)NC(=O)[C@@H]2CC(=O)CCN2C(=O)[C@H](Cc2ccccc2)N(C)C(=O)[C@@H]2CCCN2C1=O [Virginiamycin S1] | inactive: 0.91
9 | CC1(CO)C(O)CCC2(C)C1CCC1CC3CC12CCC3(O)COC(=O)CN (stereo unspecified) [Aphidicolin Glycinate] | inactive: 0.691
10 | CC1C(=O)CC2C(C)(C)CCCC2(C)C1(O)CCc1ccoc1 (stereo unspecified) [Hispanolone] | inactive: 0.92
11 | CCC1OC(=O)C(C)C(OC2CC(C)(O)C(O)C(C)O2)C(C)C(O)C(C)(O)CC(C)C(=O)C(C)C(O)C1C (stereo unspecified) | inactive: 1.2
12 | c1ccc(-c2cccc(-c3ccccn3)n2)nc1 [2,2':6',2''-Terpyridine] | inactive: 0.94
13 | Cc1cc(Cl)ccc1N1C(=O)C(=O)C(c2nc3ccccc3o2)C(=O)C1=O | inactive: 1.07
14 | CC(C)[C@@H](C)/C=C/[C@@H](C)[C@H]1CC[C@H]2C3=CC=C4C[C@@H](O)CC[C@]4(C)[C@H]3CC[C@]12C | inactive: 0.93
15 | CC1(C)C(=O)N2c3ccccc3C3(CC(N4C(=O)c5ccccc5C4=O)C(=O)O3)C2N1C(=O)OCc1ccccc1 (stereo unspecified) | inactive: 0.76
16 | O=[N+]([O-])c1cccc2nc3ccccc3c(NCCCNc3c4ccccc4nc4cccc([N+](=O)[O-])c34)c12 [N,N'-Bis(1-nitroacridin-9-yl)propane-1,3-diamine] | inactive: 0.94

A few values from the entries so far:
For Kcc2 promoter-driven luciferase activity, CC[C@H]1NC(=O)[C@@H](NC(=O)c2ncccc2O)[C@@H](C)OC(=O)[C@H](c2ccccc2)NC(=O)[C@@H]2CC(=O)CCN2C(=O)[C@H](Cc2ccccc2)N(C)C(=O)[C@@H]2CCCN2C1=O [Virginiamycin S1] shows inactive: 0.91
For Kcc2 promoter-driven luciferase activity, c1ccc(-c2cccc(-c3ccccn3)n2)nc1 [2,2':6',2''-Terpyridine] shows inactive: 0.94

Remaining list, next part.

Row | Structure (SMILES) | Kcc2 promoter-driven luciferase activity
17 | CC1(C)N=C(N)N=C(N)N1c1ccc(CCCCc2ccc(Cl)cc2Cl)cc1 | inactive: 0.925
18 | O=c1ncccn1C1OC(CO)C(O)C1F (stereo unspecified) | active: 5.79
19 | Cc1ccc([S+](c2ccccc2)c2cc(C)ccc2C)cc1.O=C(OC(C(=O)[O-])C(OC(=O)c1ccccc1)C(=O)O)c1ccccc1 (stereo unspecified) | inactive: 1.01
20 | Cc1nc(-c2cccnc2)sc1C(=O)/C=C/c1ccc(Cl)cc1Cl | inactive: 1.17
21 | C=C(C)[C@@H]1CCc2c(O)c(O)c(=O)cc(C)c2C1 | inactive: 0.8
22 | O=C1/C(=C/c2ccc([N+](=O)[O-])cc2)Sc2scc(-c3cccc([N+](=O)[O-])c3)[n+]21 | inactive: 0.85
23 | CCOC(=O)C1=C(C)NC(=S)NC1c1ccccc1 (stereo unspecified) | inactive: 0.67
24 | COc1ccc(OC)c(-c2cc(=O)c3c(OC)c(OC)c(OC)c(OC)c3o2)c1 [2',5',5,6,7,8-Hexamethoxyflavone] | inactive: 0.41
25 | CN(C)CCN1C(=O)c2cccc3cc(N)cc(c23)C1=O [Amonafide] | inactive: 0.84
26 | O=c1cccccc1O [Tropolone] | inactive: 1.23
27 | S=C1Nc2cnc3ccccc3c2SC1c1ccccc1 (stereo unspecified) [2-phenyl-4H-[1,4]thiazino[3,2-c]quinoline-3-thione] | active: 1.26
28 | O=c1[nH]c2ccc(O)cc2o1 [6-Hydroxy-2-benzoxazolinone] | inactive: 1.23
29 | CC1OC1C(=O)C1(O)C(C)C(O)C23OC2(C(O)c2c(O)cccc2C3=O)C1O (stereo unspecified) [Cervicarcin] | inactive: 0.87
30 | Nc1nc(N)c(N=Nc2ccccc2)c(=O)[nH]1 [2,6-Diamino-5-(phenylazo)-4-pyrimidinol] | active: 1.26
31 | CN(Cc1cnc2nc(N)nc(N)c2n1)c1ccc(C(=O)N[C@@H](CCC(=O)O)C(=O)O)cc1 [Methotrexate] | inactive: 0.48
